In the supplement of paper PMC4604168 (melanoma cell lines):
The list shows a part of the results. Many values rest on one well or one pass, so single values are uncertain.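 The apoptosis fraction was the count of cleaved-PARP antibody-stained nuclei relative to all DNA-stained nuclei, imaged in 1,536-well plates. Screening doses were set so most cells survived, and baseline and induced cleaved-PARP levels vary greatly across cell lines.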

Experiments:
Assay in all cases: cleaved PARP positive nuclei fraction relative to DMSO control; melanoma cells; higher = more apoptosis
Details in all cases: library dose: low library concentration; 72 h
[1] = tested on: 501Mel
[2] = tested on: A101D
[3] = tested on: A2058
[4] = tested on: A375
[5] = tested on: C32
[6] = tested on: CBRC008 (line from a melanoma biopsy)
[7] = tested on: CBRC014 (line from a melanoma biopsy)
[8] = tested on: CBRC016 (line from a melanoma biopsy)
[9] = tested on: CBRC017 (line from a melanoma biopsy)
[10] = tested on: CBRC034 (line from a melanoma biopsy)
[11] = tested on: COLO792
[12] = tested on: COLO800
[13] = tested on: COLO829
[14] = tested on: G361
[15] = tested on: IPC-298
[16] = tested on: IST-MEL1
[17] = tested on: LB2518-MEL
[18] = tested on: LOXIMVI
[19] = tested on: MEL-HO

Compound	cleaved PARP positive nuclei fraction [1] [%]	cleaved PARP positive nuclei fraction [2] [%]	cleaved PARP positive nuclei fraction [3] [%]	cleaved PARP positive nuclei fraction [4] [%]	cleaved PARP positive nuclei fraction [5] [%]	cleaved PARP positive nuclei fraction [6] [%]	cleaved PARP positive nuclei fraction [7] [%]	cleaved PARP positive nuclei fraction [8] [%]	cleaved PARP positive nuclei fraction [9] [%]	cleaved PARP positive nuclei fraction [10] [%]	cleaved PARP positive nuclei fraction [11] [%]	cleaved PARP positive nuclei fraction [12] [%]	cleaved PARP positive nuclei fraction [13] [%]	cleaved PARP positive nuclei fraction [14] [%]	cleaved PARP positive nuclei fraction [15] [%]	cleaved PARP positive nuclei fraction [16] [%]	cleaved PARP positive nuclei fraction [17] [%]	cleaved PARP positive nuclei fraction [18] [%]	cleaved PARP positive nuclei fraction [19] [%]
Cc1cc(Nc2cc(N3CCN(C)CC3)nc(/C=C/c3ccccc3)n2)n[nH]1 + Clc1ccc(Nc2nnc(Cc3ccncc3)c3ccccc23)cc1 [vatalanib] (first compound 0.04 µM, partner dose 2 µM)	114	93.4	146	70.7	134	73.8	110	122	127	121	81.7	146	155	63	59.9	91.7	50.1	111	41.5
Nc1ccn([C@@H]2O[C@H](CO)[C@@H](O)C2(F)F)c(=O)n1 [gemcitabine] + COc1ccc(Cl)c(Nc2nc3ccccc3nc2NS(=O)(=O)c2cccc(NC(=O)C(C)(C)N)c2)c1 [XL147] (first compound 0.0004 µM, partner dose 0.8 µM)	90.9	85.8	100	73.4	80.4	54.6	143	164	127	126	34.2	149	133	158	95.9	126	53.6	303	61.3
Cc1cc(Nc2cc(N3CCN(C)CC3)nc(/C=C/c3ccccc3)n2)n[nH]1 + CCCS(=O)(=O)Nc1ccc(F)c(C(=O)c2c[nH]c3ncc(Cl)cc23)c1F [PLX4720] (first compound 0.04 µM, partner dose 0.08 µM)	73.1	50.2	98.4	131	84.7	112	89.1	127	104	62.9	124	94.4	77.6	130	47.5	272	113	196	164
CC(C)C[C@H](NC(=O)[C@H](Cc1ccccc1)NC(=O)c1cnccn1)B(O)O [Bortezomib] + O=C(O)c1ccc2c(c1)nc(Nc1cccc(Cl)c1)c1ccncc12 [CX4945] (first compound 0.001 µM, partner dose 0.4 µM)	316	420	147	134	82.1	1130	285	1150	638	190	100	105	185	5860	135	68.7	313	152	113
CO[C@H]1C[C@@H]2CC[C@@H](C)[C@@](O)(O2)C(=O)C(=O)N2CCCC[C@H]2C(=O)O[C@H]([C@H](C)C[C@@H]2CC[C@@H](OCCO)[C@H](OC)C2)CC(=O)[C@H](C)/C=C(\C)[C@@H](O)[C@@H](OC)C(=O)[C@H](C)C[C@H](C)/C=C/C=C/C=C/1C [everolimus] + CS(=O)(=O)CCNCc1ccc(-c2ccc3ncnc(Nc4ccc(OCc5cccc(F)c5)c(Cl)c4)c3c2)o1 [lapatinib] (first compound 0.02 µM, partner dose 0.8 µM)	296	33.3	338	701	75.5	259	98.2	102	110	98.2	137	201	171	182	333	305	140	156	287
O=C(O)[C@@H]1[O][Sb](=[O])([O][Sb]2(=[O])[O][C@H]([C@H](O)CO)[C@H](O)[C@H](C(=O)O)[O]2)[O][C@H]([C@H](O)CO)[C@@H]1O (stereo partly specified) [stibogluconate] + C[C@]1(c2nc3c(C(N)=O)cccc3[nH]2)CCCN1 [Veliparib] (first compound 2 µM, partner dose 1.4 µM)	88.6	65	125	148	70	85.1	109	303	72.7	58.1	160	78	198	97.1	43.5	122	106	207	54.8
CN1CCN(c2ccc3nc(-c4c(N)c5c(F)cccc5[nH]c4=O)[nH]c3c2)CC1 [Dovitinib] + O=C(O)[C@@H]1[O][Sb](=[O])([O][Sb]2(=[O])[O][C@H]([C@H](O)CO)[C@H](O)[C@H](C(=O)O)[O]2)[O][C@H]([C@H](O)CO)[C@@H]1O [stibogluconate] (first compound 0.1 µM, partner dose 2 µM)	125	271	103	81.9	150	98.4	96.4	75.8	92	58.1	49.1	90.9	150	54.3	52	60.2	202	10.7	120
Nc1ncn([C@H]2C[C@H](O)[C@@H](CO)O2)c(=O)n1 [decitabine] + COc1ccc(Cl)c(Nc2nc3ccccc3nc2NS(=O)(=O)c2cccc(NC(=O)C(C)(C)N)c2)c1 [XL147] (first compound 0.1 µM, partner dose 0.8 µM)	64.6	100	310	310	79.8	374	120	351	205	126	91.6	73.8	51.3	75.1	141	128	132	69.3	129
Nc1nc(F)nc2c1ncn2[C@@H]1O[C@H](CO)[C@@H](O)[C@@H]1O [fludarabine] + CC(=O)c1c(C)c2cnc(Nc3ccc(N4CCNCC4)cn3)nc2n(C2CCCC2)c1=O [palbociclib] (first compound 0.2 µM, partner dose 0.04 µM)	15000	172	94.3	4320	104	53	113	96.6	184	74.1	75.7	80.7	111	276	108	76.6	73.8	261	190

Just cleaved PARP positive nuclei fraction [1] [%] and cleaved PARP positive nuclei fraction [12] [%], for some of the entries so far:
Compound,cleaved PARP positive nuclei fraction [1] [%],cleaved PARP positive nuclei fraction [12] [%]
"Cc1cc(Nc2cc(N3CCN(C)CC3)nc(/C=C/c3ccccc3)n2)n[nH]1 + Clc1ccc(Nc2nnc(Cc3ccncc3)c3ccccc23)cc1 [vatalanib] (first compound 0.04 µM, partner dose 2 µM)",114,146
"Nc1ncn([C@H]2C[C@H](O)[C@@H](CO)O2)c(=O)n1 [decitabine] + COc1ccc(Cl)c(Nc2nc3ccccc3nc2NS(=O)(=O)c2cccc(NC(=O)C(C)(C)N)c2)c1 [XL147] (first compound 0.1 µM, partner dose 0.8 µM)",64.6,73.8
